This note sets out measurements from paper PMC9691359.

Protein sequences, listed by entry. Tags and fused reporters are not part of them.
UniProt P70335: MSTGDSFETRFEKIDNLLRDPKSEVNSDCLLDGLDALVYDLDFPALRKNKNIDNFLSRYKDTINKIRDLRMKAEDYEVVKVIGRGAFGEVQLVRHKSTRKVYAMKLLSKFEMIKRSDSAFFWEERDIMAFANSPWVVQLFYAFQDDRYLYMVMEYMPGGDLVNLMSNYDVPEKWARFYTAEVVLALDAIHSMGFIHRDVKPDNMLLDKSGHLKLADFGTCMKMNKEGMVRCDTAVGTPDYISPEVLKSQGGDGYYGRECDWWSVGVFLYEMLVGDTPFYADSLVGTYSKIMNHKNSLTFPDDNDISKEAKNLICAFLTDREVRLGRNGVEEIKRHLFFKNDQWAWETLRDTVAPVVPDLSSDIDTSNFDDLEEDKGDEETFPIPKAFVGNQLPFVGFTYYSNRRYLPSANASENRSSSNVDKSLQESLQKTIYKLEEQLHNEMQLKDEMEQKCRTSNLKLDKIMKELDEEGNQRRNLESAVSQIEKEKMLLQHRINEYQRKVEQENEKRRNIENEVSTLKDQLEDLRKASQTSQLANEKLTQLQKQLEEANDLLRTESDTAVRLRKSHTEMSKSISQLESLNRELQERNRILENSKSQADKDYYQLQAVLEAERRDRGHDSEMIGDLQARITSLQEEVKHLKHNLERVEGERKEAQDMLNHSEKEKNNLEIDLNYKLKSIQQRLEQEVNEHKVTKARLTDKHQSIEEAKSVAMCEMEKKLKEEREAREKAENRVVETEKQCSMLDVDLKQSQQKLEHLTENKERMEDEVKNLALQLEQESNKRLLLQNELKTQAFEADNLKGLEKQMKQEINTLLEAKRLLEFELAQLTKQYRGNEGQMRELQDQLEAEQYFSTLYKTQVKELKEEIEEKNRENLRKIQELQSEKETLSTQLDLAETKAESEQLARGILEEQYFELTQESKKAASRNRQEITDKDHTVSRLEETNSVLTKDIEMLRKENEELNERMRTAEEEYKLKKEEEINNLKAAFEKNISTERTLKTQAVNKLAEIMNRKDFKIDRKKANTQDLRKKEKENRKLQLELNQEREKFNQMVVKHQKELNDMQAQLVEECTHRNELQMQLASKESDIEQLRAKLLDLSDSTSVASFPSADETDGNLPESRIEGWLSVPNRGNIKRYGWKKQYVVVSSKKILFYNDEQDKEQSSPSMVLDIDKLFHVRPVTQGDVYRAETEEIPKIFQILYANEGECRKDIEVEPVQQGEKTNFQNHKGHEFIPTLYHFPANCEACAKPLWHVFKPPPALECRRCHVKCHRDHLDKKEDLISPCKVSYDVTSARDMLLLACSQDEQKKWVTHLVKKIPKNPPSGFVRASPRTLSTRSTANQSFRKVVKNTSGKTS

In the assay the target is T1, Rho family GTPase 3 (Rnd3), Flag-tagged, expressed from adenovirus Ad-Rnd3-Flag (UniProt P61588).
T1 sequence: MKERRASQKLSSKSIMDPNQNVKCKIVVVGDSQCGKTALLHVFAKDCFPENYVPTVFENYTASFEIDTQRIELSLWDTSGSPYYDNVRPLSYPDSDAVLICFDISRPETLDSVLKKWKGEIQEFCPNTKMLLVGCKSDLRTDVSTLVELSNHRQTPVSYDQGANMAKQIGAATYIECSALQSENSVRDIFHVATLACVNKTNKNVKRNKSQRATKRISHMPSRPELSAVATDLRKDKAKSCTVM
In words: co-IP; cardiac fibroblasts treated with Ad-Rnd3-Flag in conditioned medium (HG+PA); which protein was precipitated is not told in the text shown.

Results are given in words; binding and its absence hold for the method and conditions named. In cells and extracts the contact can be indirect. Some binding calls cover weakened binding; strength is not graded here. Where a sequence is shown, tags or fusion partners need not be part of it.

For “Rho-associated kinase 1 (ROCK1) (from UniProt P70335 1-1354) (enzyme)”, the binding result was “binds”.
